Measured values published in PubChem BioAssay AID248 (DTP/NCI, 2004).
The list shows only some results of the screen, not a fair sample: it gathers tests that were run many times, whatever their T/C, doses with no T/C, and many T/C values between a quarter and a half above the control. Other doses and runs of a compound stand elsewhere. T/C gives the treated animals as a percentage of the vehicle group. Where survival is the endpoint, this PubChem deposit counts one and a half times the control or more as active, and values a quarter to a half above the control carry no call in these data; other NCI protocols may use other cut-offs. Schedule codes are those of the source, taken here to give the interval after Q, in days (D) or hours (H), and the number of doses after X. Some T/C values are followed by the survivors on the day toxicity was checked, most often the fifth; where none is given, no animal had died by that day. Some entries hold several experiments; the results are listed from low to high. Additions like (4×) give the number of equal values in this list.

Test system: L1210 leukemia ip in BDF1 mice, survival T/C
Assay: NCI In Vivo Anticancer Drug Screen. Data for tumor model L1210 Leukemia (intraperitoneal) in B6D2F1 (BDF1) mice
Conditions: higher T/C = longer survival

COc1cccc2c1C(=O)c1c(O)c3c(c(O)c1C2=O)C[C@@](O)(C(=O)CO)C[C@@H]3OC1CC(N)C(O)C(C)O1 (some centres undefined)
T/C (T/C endpoint: mean survival time, dose: 67.0 micrograms/kg/injection, schedule: Q03HX032 (ip), vehicle: clinical formulation): 125 % of control | T/C (T/C endpoint: mean survival time, dose: 220.0 micrograms/kg/injection, schedule: Q03HX032 (ip), vehicle: clinical formulation): 126 % of control | T/C (T/C endpoint: mean survival time, dose: 330.0 micrograms/kg/injection, schedule: Q03HX032 (ip), vehicle: clinical formulation): 131 % of control | T/C (T/C endpoint: mean survival time, dose: 750.0 micrograms/kg/injection, schedule: Q03HX032 (ip), vehicle: clinical formulation): 147 % of control | T/C (T/C endpoint: median survival time, dose: 0.19 mg/kg/injection, schedule: Q03HX008 (ip), vehicle: water, evaluated on day 5): 103, 111, 121 % of control | T/C (T/C endpoint: median survival time, dose: 0.19 mg/kg/injection, schedule: Q03HX008 (ip), vehicle: water, evaluated on day 20): 111 % of control | T/C (T/C endpoint: median survival time, dose: 0.19 mg/kg/injection, schedule: Q03HX008 (ip), vehicle: water, evaluated on day 29): 121 % of control | T/C (T/C endpoint: median survival time, dose: 0.19 mg/kg/injection, schedule: Q03HX008 (ip), vehicle: water, evaluated on day 30): 103 % of control | T/C (T/C endpoint: median survival time, dose: 0.23 mg/kg/injection, schedule: Q04DX003 (ip), vehicle: water): 125 % of control | T/C (T/C endpoint: median survival time, dose: 0.25 mg/kg/injection, schedule: Q01DX005 (ip), vehicle: other, evaluated on day 5): 130 % of control | T/C (T/C endpoint: median survival time, dose: 0.25 mg/kg/injection, schedule: Q01DX005 (ip), vehicle: other, evaluated on day 31): 130 % of control | T/C (T/C endpoint: median survival time, dose: 0.25 mg/kg/injection, schedule: Q03HX008 (ip), vehicle: water, evaluated on day 5): 141 % of control | T/C (T/C endpoint: median survival time, dose: 0.25 mg/kg/injection, schedule: Q03HX008 (ip), vehicle: water, evaluated on day 30): 129 % of control [9 of 10 alive] | T/C (T/C endpoint: median survival time, dose: 0.25 mg/kg/injection, schedule: Q03HX008 (ip), vehicle: water, evaluated on day 46): 145 % of control | T/C (T/C endpoint: median survival time, dose: 0.25 mg/kg/injection, schedule: Q03HX024 (ip), vehicle: water): 131 % of control | T/C (T/C endpoint: median survival time, dose: 0.38 mg/kg/injection, schedule: Q03HX008 (ip), vehicle: water, evaluated on day 5): 113 (2×), 125, 130, 132 % of control | T/C (T/C endpoint: median survival time, dose: 0.38 mg/kg/injection, schedule: Q03HX008 (ip), vehicle: water, evaluated on day 7): 105 % of control | T/C (T/C endpoint: median survival time, dose: 0.38 mg/kg/injection, schedule: Q03HX008 (ip), vehicle: water, evaluated on day 20): 130 % of control [7 of 8 alive] | T/C (T/C endpoint: median survival time, dose: 0.38 mg/kg/injection, schedule: Q03HX008 (ip), vehicle: water, evaluated on day 29): 132 % of control [7 of 8 alive] | T/C (T/C endpoint: median survival time, dose: 0.38 mg/kg/injection, schedule: Q03HX008 (ip), vehicle: water, evaluated on day 30): 105, 113, 113 % of control [7 of 8 alive] | T/C (T/C endpoint: median survival time, dose: 0.38 mg/kg/injection, schedule: Q03HX008 (ip), vehicle: water, evaluated on day 60): 125 % of control | T/C (T/C endpoint: median survival time, dose: 0.38 mg/kg/injection, schedule: Q04DX003 (ip), vehicle: water, evaluated on day 5): 132 % of control | T/C (T/C endpoint: median survival time, dose: 0.38 mg/kg/injection, schedule: Q04DX003 (ip), vehicle: water, evaluated on day 60): 132 % of control | T/C (T/C endpoint: median survival time, dose: 0.39 mg/kg/injection, schedule: Q01DX005 (ip), vehicle: water, evaluated on day 5): 120 % of control | T/C (T/C endpoint: median survival time, dose: 0.39 mg/kg/injection, schedule: Q01DX005 (ip), vehicle: water, evaluated on day 60): 120 and 121 % of control | T/C (T/C endpoint: median survival time, dose: 0.39 mg/kg/injection, schedule: Q01DX005 (ip), vehicle: water, evaluated on day 90): 133 % of control | T/C (T/C endpoint: median survival time, dose: 0.39 mg/kg/injection, schedule: Q03HX008 (ip), vehicle: none): 138 % of control | T/C (T/C endpoint: median survival time, dose: 0.39 mg/kg/injection, schedule: Q03HX008 (ip), vehicle: water, evaluated on day 5): 142 and 151 % of control | T/C (T/C endpoint: median survival time, dose: 0.39 mg/kg/injection, schedule: Q03HX008 (ip), vehicle: water, evaluated on day 7): 106 % of control | T/C (T/C endpoint: median survival time, dose: 0.39 mg/kg/injection, schedule: Q03HX008 (ip), vehicle: water, evaluated on day 30): 140 % of control | T/C (T/C endpoint: median survival time, dose: 0.39 mg/kg/injection, schedule: Q03HX008 (ip), vehicle: water, evaluated on day 46): 150 % of control | T/C (T/C endpoint: median survival time, dose: 0.39 mg/kg/injection, schedule: Q03HX008 (ip), vehicle: water, evaluated on day 60): 136 % of control | T/C (T/C endpoint: median survival time, dose: 0.39 mg/kg/injection, schedule: Q03HX008 (ip), vehicle: water, evaluated on day 63): 105 % of control | T/C (T/C endpoint: median survival time, dose: 0.39 mg/kg/injection, schedule: Q03HX016 (ip), vehicle: water, evaluated on day 5): 135 % of control | T/C (T/C endpoint: median survival time, dose: 0.39 mg/kg/injection, schedule: Q03HX016 (ip), vehicle: water, evaluated on day 46): 133 % of control | T/C (T/C endpoint: median survival time, dose: 0.39 mg/kg/injection, schedule: Q03HX016 (ip), vehicle: water, evaluated on day 60): 95 and 109 % of control | T/C (T/C endpoint: median survival time, dose: 0.39 mg/kg/injection, schedule: Q03HX024 (ip), vehicle: water, evaluated on day 7): 108 and 116 % of control | T/C (T/C endpoint: median survival time, dose: 0.39 mg/kg/injection, schedule: Q03HX024 (ip), vehicle: water, evaluated on day 32): 116 % of control | T/C (T/C endpoint: median survival time, dose: 0.39 mg/kg/injection, schedule: Q03HX024 (ip), vehicle: water, evaluated on day 60): 90 [7 of 8 alive] and 118 % of control | T/C (T/C endpoint: median survival time, dose: 0.39 mg/kg/injection, schedule: Q03HX024 (ip), vehicle: water, evaluated on day 63): 105 % of control [7 of 8 alive] | T/C (T/C endpoint: median survival time, dose: 0.5 mg/kg/injection, schedule: Q03HX008 (ip), vehicle: water, evaluated on day 5): 131 % of control | T/C (T/C endpoint: median survival time, dose: 0.5 mg/kg/injection, schedule: Q03HX008 (ip), vehicle: water, evaluated on day 30): 129 % of control | T/C (T/C endpoint: median survival time, dose: 0.5 mg/kg/injection, schedule: Q03HX008 (ip), vehicle: water, evaluated on day 46): 130 % of control | T/C (T/C endpoint: median survival time, dose: 0.5 mg/kg/injection, schedule: Q03HX008 (ip), vehicle: water, evaluated on day 61): 100 % of control | T/C (T/C endpoint: median survival time, dose: 0.5 mg/kg/injection, schedule: Q03HX024 (ip), vehicle: water): 131 % of control | T/C (T/C endpoint: median survival time, dose: 0.5 mg/kg/injection, schedule: Q04DX003 (ip), vehicle: water, evaluated on day 5): 132 % of control | T/C (T/C endpoint: median survival time, dose: 0.5 mg/kg/injection, schedule: Q04DX003 (ip), vehicle: water, evaluated on day 30): 132 % of control | T/C (T/C endpoint: median survival time, dose: 0.65 mg/kg/injection, schedule: Q01DX005 (ip), vehicle: water, evaluated on day 5): 148 % of control | T/C (T/C endpoint: median survival time, dose: 0.65 mg/kg/injection, schedule: Q01DX005 (ip), vehicle: water, evaluated on day 35): 115 % of control | T/C (T/C endpoint: median survival time, dose: 0.65 mg/kg/injection, schedule: Q01DX005 (ip), vehicle: water, evaluated on day 60): 131 and 148 % of control | T/C (T/C endpoint: median survival time, dose: 0.65 mg/kg/injection, schedule: Q01DX005 (ip), vehicle: water, evaluated on day 90): 144 % of control | T/C (T/C endpoint: median survival time, dose: 0.65 mg/kg/injection, schedule: Q03HX008 (ip), vehicle: water, evaluated on day 5): 121, 132, 133, 142 % of control | T/C (T/C endpoint: median survival time, dose: 0.65 mg/kg/injection, schedule: Q03HX008 (ip), vehicle: water, evaluated on day 7): 105, 108, 114, 115 % of control | T/C (T/C endpoint: median survival time, dose: 0.65 mg/kg/injection, schedule: Q03HX008 (ip), vehicle: water, evaluated on day 20): 108 % of control
